Results are given in words; binding and its absence hold for the method and conditions named. Some entries that bind do so weakly or less than the wild type.
What was measured:
[1] = biological target: T1, recombinant human MDA5 protein (human, UniProt Q9BYX4 1-1025); experiment: electrochemiluminescence sandwich immunoassay (MSD), biotin-labelled H27 as secondary (detection) mAb
T1 construct: Expressed in SF9 cells with baculovirus; also called pPSC8/human MDA5 product; MDA5 standard; not shown: N-terminal 6X His tag, GST and turbo 3C protease cleavage site
T1 sequence: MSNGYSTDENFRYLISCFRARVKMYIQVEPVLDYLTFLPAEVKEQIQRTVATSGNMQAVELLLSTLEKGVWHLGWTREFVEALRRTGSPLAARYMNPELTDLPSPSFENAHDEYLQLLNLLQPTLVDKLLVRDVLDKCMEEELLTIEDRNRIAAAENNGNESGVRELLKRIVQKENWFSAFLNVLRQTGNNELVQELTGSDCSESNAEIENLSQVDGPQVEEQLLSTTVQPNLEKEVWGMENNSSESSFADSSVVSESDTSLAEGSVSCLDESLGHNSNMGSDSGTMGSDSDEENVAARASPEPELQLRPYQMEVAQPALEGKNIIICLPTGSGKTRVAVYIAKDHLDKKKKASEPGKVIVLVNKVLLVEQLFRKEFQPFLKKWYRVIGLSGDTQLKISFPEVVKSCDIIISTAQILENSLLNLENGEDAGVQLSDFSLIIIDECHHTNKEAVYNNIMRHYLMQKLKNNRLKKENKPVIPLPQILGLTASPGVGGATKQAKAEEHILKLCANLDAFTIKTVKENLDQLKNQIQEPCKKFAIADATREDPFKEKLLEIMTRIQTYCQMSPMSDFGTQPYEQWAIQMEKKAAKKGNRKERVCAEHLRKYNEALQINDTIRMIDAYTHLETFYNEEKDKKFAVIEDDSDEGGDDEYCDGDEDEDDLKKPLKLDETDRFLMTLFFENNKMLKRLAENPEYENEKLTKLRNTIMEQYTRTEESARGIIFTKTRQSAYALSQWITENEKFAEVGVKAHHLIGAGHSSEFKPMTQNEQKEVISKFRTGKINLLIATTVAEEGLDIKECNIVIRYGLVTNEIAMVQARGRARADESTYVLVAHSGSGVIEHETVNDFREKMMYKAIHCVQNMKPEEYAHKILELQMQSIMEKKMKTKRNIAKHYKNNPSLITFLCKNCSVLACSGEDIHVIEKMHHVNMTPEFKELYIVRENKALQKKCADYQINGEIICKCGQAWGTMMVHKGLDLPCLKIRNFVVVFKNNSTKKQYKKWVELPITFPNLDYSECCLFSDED

[2] = biological target: T2, human MDA5 protein (full-length, about 120 kDa) (human) (UniProt Q9BYX4); experiment: Western blot of normal lung and lung cancer tissues, mAb at 1 ug/mL
T2 sequence: T1 sequence

[3] = biological target: T2, human MDA5 protein (full-length, about 120 kDa) (human); experiment: immunohistochemistry of human tonsil and pancreas sections, H27 at 1 ug/mL

- binding [1]: binds
- binding [2]: binds
- binding [3]: binds
B1: mouse anti-human MDA5 monoclonal antibody (H27) (antibody, V domains shown)
VH: QIQLVQSGPELKKPGETVKISCKASGYTFTDYSMHWVKQAPGKGLKWMGWINTETGDPKYADDFKGRFVFSLETSASTAYLQINNLKNEDTASYFCAVATNYWGQGTTLTVSS
VL: DIQMTQSPSSLSASLGERVSLTCRASQDIGSSLNWLQQKPDGAIKRLISATSSLDSGVPKRFSGSRSGSDYSLTISSLESEDFVDYFCLQYASSPLTFGAGTKLELR

— patent US20230314433A1 (KURUME UNIVERSITY, published 2023)
